T/C and survivor count data for 20 compounds are collected here from PubChem BioAssay AID334 (DTP/NCI, 2004).

SMILES strings stand for the structures. The list shows only some results of the screen, not a fair sample: it gathers tests that were run many times, whatever their T/C, doses with no T/C, and many T/C values between a quarter and a half above the control. Other doses and runs of a compound stand elsewhere. T/C: endpoint of the treated group in % of that of the vehicle group. Some doses have a count of surviving animals in place of a T/C: the source holds a T/C of zero for them, seemingly a mark for toxic or unscored doses. Some survivor counts are full or nearly so, which does not show that the dose was tolerated: the source hardly ever lists a survival T/C far under the control, and the zero likely stands for such cases as well. Survivors were counted at the toxicity check, usually on the fifth day, unless a day is given; later deaths do not show. Schedules are NCI's codes, taken here to give the interval after Q, in days (D) or hours (H), and the number of doses after X. Some entries were tested several times; the values are given in rising order. For survival time, the PubChem record calls one and a half times the control and up active, and a quarter to a half above the control has no call in these data; cut-offs in other NCI protocols can differ. Some T/C values carry the count of animals alive at the toxicity check (mostly the fifth day); without a count, all were alive then.

The test system of this assay is CD2F1 mice, intracerebral P388 leukemia, median survival T/C%. Nature of the assay: NCI In Vivo Anticancer Drug Screen. Data for tumor model P388 Leukemia (intracerebral) in CD2F1 (CDF1) mice. To be noted: T/C endpoint: median survival time, higher T/C = longer survival. The method, then: The antitumor activity of compounds was measured in mice bearing transplantable tumors. Survival or tumor size were measured and the results are expressed as the measurement made in the treated group (T) divided by the measurement made in the vehicle treated control group (C). The tumor model used in this assay is P388 Leukemia (intracerebral) in CD2F1 (CDF1) mice

Where [1] appears, read: dose: 800.0 mg/kg/injection, schedule: Q01DX005 (ip), vehicle: suspension in saline.

Take `[N-]=[N+]=CC(=O)CCC(N)C(=O)O` (configuration not stated): the T/C (dose: 0.1 mg/kg/injection, schedule: Q01DX009 (ip), vehicle: saline) was 126 % of control. For the same compound, for the setting “dose: 0.8 mg/kg/injection, schedule: Q01DX009 (ip), vehicle: saline”, the survivor count was 10 of 10.

`COc1ccc2c(c1OC(C)=O)-c1cc(OC(C)=O)cc3c1C(C2)N(C(=O)CN(CCCl)CCCl)CC3` (configuration not stated): where the note is “dose: 0.75 mg/kg/injection, schedule: Q01DX009 (ip), vehicle: DMSO”, the T/C is 146 % of control. In addition, the survivor count (dose: 12.5 mg/kg/injection, schedule: Q01DX009 (ip), vehicle: DMSO) was 10 of 10; the survivor count (dose: 25.0 mg/kg/injection, schedule: Q01DX009 (ip), vehicle: DMSO) was 10 of 10; the survivor count (dose: 50.0 mg/kg/injection, schedule: Q01DX009 (ip), vehicle: DMSO) is 3 of 10; the survivor count (dose: 100.0 mg/kg/injection, schedule: Q01DX009 (ip), vehicle: DMSO) is on record as 2 of 10; the survivor count (dose: 200.0 mg/kg/injection, schedule: Q01DX009 (ip), vehicle: DMSO) is listed as 0 of 10.

As for `COc1ccc2c(c1)CCC(c1ccccc1)=C2c1ccc(OCCN2CCCC2)cc1`, under “dose: 96.0 mg/kg/injection, schedule: Q01DX005 (ip), vehicle: Klucel (hydroxypropylcellulose) (HPC)”, the survivor count is 10 of 10.

For `C#C[C@]1(O)CC[C@H]2[C@@H]3CCc4cc(O)ccc4[C@H]3CC[C@@]21C`, the survivor count (dose: 8.0 mg/kg/injection, schedule: Q01DX009 (ip), vehicle: saline with Tween-80) is given as 6 of 6. Besides, the T/C was 132 % of control (dose: 128.0 mg/kg/injection, schedule: Q01DX009 (ip), vehicle: saline with Tween-80) and 130 % of control [5 of 6 alive] (dose: 256.0 mg/kg/injection, schedule: Q01DX009 (ip), vehicle: saline with Tween-80).

As to `C[C@]12C=CC(=O)C=C1CC[C@@H]1[C@@H]2CC[C@]2(C)OC(=O)CC[C@@H]12`, the survivor count (dose: 256.0 mg/kg/injection, schedule: Q01DX009 (ip), vehicle: Klucel (hydroxypropylcellulose) (HPC)) was 0 of 6 and 2 of 6; the survivor count (dose: 512.0 mg/kg/injection, schedule: Q01DX009 (ip), vehicle: Klucel (hydroxypropylcellulose) (HPC)) is 0 of 6; the survivor count (dose: 512.0 mg/kg/injection, schedule: Q01DX009 (ip), vehicle: saline with Tween-80) is 3 of 6 and 4 of 6.

As to `CN1CC[C@]23c4c5ccc(O)c4O[C@H]2C(=O)CC[C@H]3[C@H]1C5`, the survivor count is, setting by setting: (dose: 25.0 mg/kg/injection, schedule: Q01DX005 (iv), vehicle: saline) 1 of 6; (dose: 50.0 mg/kg/injection, schedule: Q01DX005 (iv), vehicle: saline) 0 of 6.

For the compound `O=[N+]([O-])O.[Ga]`, the survivor count (dose: 256.0 mg/kg/injection, schedule: Q01DX005 (ip), vehicle: saline) is 0 of 10.

Consider `Cc1cc(NC(=O)NCc2ccc(N3C(N)=NC(N)=NC3(C)C)cc2)ccc1S(=O)(=O)F`, for which the survivor count (dose: 100.0 mg/kg/injection, schedule: Q01DX009 (ip), vehicle: saline with Tween-80) is 3 of 6.

As for `CN(C)CC(=O)c1ccc(O)c(O)c1`, the survivor count is 2 of 8 (dose: 800.0 mg/kg/injection, schedule: Q01DX005 (ip), vehicle: saline) and 6 of 10 under setting [1].

As for `CC1(C)N=C(N)N=C(N)N1c1ccc(CNC(=O)Nc2cccc(S(=O)(=O)F)c2)cc1`, under “dose: 100.0 mg/kg/injection, schedule: Q04DX003 (ip), vehicle: saline”, the T/C is 133 % of control.

Take `Nc1nc2c(c(=O)[nH]1)N(C=O)C(CNc1ccc(C(=O)N[C@@H](CCC(=O)O)C(=O)O)cc1)CN2` (some centres not stated): the survivor count (dose: 1024.0 mg/kg/injection, schedule: Q01DX005 (ip), vehicle: suspension in saline) is 6 of 10.

For `CCCCCCCCCCCCCCCCCC(=O)NC(CC(=O)OCCCCCC)c1ccc(N(CCCl)CCCl)cc1` (configuration not stated), the T/C (dose: 17.2 mg/kg/injection, schedule: Q03HX008 (ip), vehicle: saline) is 126 % of control; the T/C (dose: 34.4 mg/kg/injection, schedule: Q03HX008 (ip), vehicle: saline) is 126 % of control; the T/C (dose: 34.5 mg/kg/injection, schedule: Q03HX008 (ip), vehicle: saline) was 142 % of control [9 of 10 alive]; the T/C (dose: 68.8 mg/kg/injection, schedule: Q03HX008 (ip), vehicle: saline) was 147 % of control; the T/C (dose: 138.0 mg/kg/injection, schedule: Q03HX008 (ip), vehicle: saline) was 136 % of control [9 of 10 alive].

In the case of `COc1cccc2c1C(=O)c1c(O)c3c(c(O)c1C2=O)CC(O)(C(=O)CO)CC3OC1CC(N)C(O)C(C)O1` (configuration not stated), under “dose: 30.0 mg/kg/injection, schedule: Q04DX003 (ip), vehicle: clinical formulation”, the survivor count is listed as 6 of 10.

As to `CC1(C)N=C(N)N=C(N)N1c1ccc(CCCCc2ccc(S(=O)(=O)F)cc2Cl)c(Cl)c1`, the T/C runs as follows: (dose: 25.0 mg/kg/injection, schedule: Q01DX009 (ip), vehicle: saline with Tween-80) 130 % of control; (dose: 89.0 mg/kg/injection, schedule: Q04DX003 (ip), vehicle: saline with Tween-80) 127 % of control. For the same compound, the survivor count (dose: 450.0 mg/kg/injection, schedule: Q04DX003 (ip), vehicle: saline with Tween-80) is 3 of 6.

Consider `CN(C)c1nc(N(C)C)nc(N(C)C)n1`, for which the survivor count is given as 0 of 10 (dose: 800.0 mg/kg/injection, schedule: Q01DX005 (ip), vehicle: saline with Tween-80) and 0 of 10 under setting [1].

For `CC(=O)N(C)c1ccc(Nc2cc(C)[nH]c3ccc4ncnc4c23)cc1`, the survivor count was 6 of 6 (dose: 80.0 mg/kg/injection, schedule: Q01DX005 (ip), vehicle: saline) and 0 of 6 (dose: 160.0 mg/kg/injection, schedule: Q01DX005 (ip), vehicle: saline).

In the case of `CC(=O)NNC(=O)c1ccccn1`, the survivor count is on record as 0 of 10 (dose: 400.0 mg/kg/injection, schedule: Q01DX005 (ip), vehicle: Klucel (hydroxypropylcellulose) (HPC)) and 0 of 10 (dose: 800.0 mg/kg/injection, schedule: Q01DX005 (ip), vehicle: Klucel (hydroxypropylcellulose) (HPC)).

Consider `NC(C/[N+]([O-])=N/O)C(=O)O` (configuration not stated), for which the survivor count (dose: 100.0 mg/kg/injection, schedule: Q01DX009 (ip), vehicle: Klucel (hydroxypropylcellulose) (HPC)) was 4 of 6 and 6 of 6; the survivor count (dose: 112.5 mg/kg/injection, schedule: Q01DX009 (ip), vehicle: saline) was 4 of 6; the survivor count (dose: 200.0 mg/kg/injection, schedule: Q01DX009 (ip), vehicle: Klucel (hydroxypropylcellulose) (HPC)) was 3 of 5 and 5 of 6; the survivor count (dose: 225.0 mg/kg/injection, schedule: Q01DX009 (ip), vehicle: saline) was 4 of 6; the survivor count (dose: 400.0 mg/kg/injection, schedule: Q01DX009 (ip), vehicle: Klucel (hydroxypropylcellulose) (HPC)) was 2 of 6 and 4 of 6; the survivor count (dose: 450.0 mg/kg/injection, schedule: Q01DX009 (ip), vehicle: saline) was 4 of 6. The survivor count reads like this: (dose: 800.0 mg/kg/injection, schedule: Q01DX009 (ip), vehicle: Klucel (hydroxypropylcellulose) (HPC)) 0 of 6 and 2 of 6; (dose: 900.0 mg/kg/injection, schedule: Q01DX009 (ip), vehicle: saline) 2 of 6.

Consider `CC(=O)O[C@H]1C(=O)[C@@]2(C)[C@H]([C@H](OC(=O)c3ccccc3)[C@]3(O)C[C@H](OC(=O)[C@H](O)[C@@H](NC(=O)c4ccccc4)c4ccccc4)C(C)=C1C3(C)C)[C@]1(OC(C)=O)CO[C@@H]1C[C@@H]2O`, for which the survivor count (dose: 40.0 mg/kg/injection, schedule: Q01DX009 (ip), vehicle: Klucel (hydroxypropylcellulose) (HPC)) is on record as 7 of 10.

`CO[C@H]1C[C@@H]2CC[C@@H](C)[C@@](O)(O2)C(=O)C(=O)N2CCCC[C@H]2C(=O)O[C@H]([C@H](C)C[C@@H]2CC[C@@H](O)[C@H](OC)C2)CC(=O)[C@H](C)C=C(C)[C@@H](O)[C@@H](OC)C(=O)[C@H](C)C[C@H](C)/C=C/C=C/C=C1C`: the T/C (dose: 12.5 mg/kg/injection, schedule: Q01DX009 (ip), vehicle: gum acacia) is 138 % of control [9 of 10 alive]; the T/C (dose: 25.0 mg/kg/injection, schedule: Q01DX009 (ip), vehicle: gum acacia) is 133 % of control; the T/C (dose: 50.0 mg/kg/injection, schedule: Q01DX009 (ip), vehicle: gum acacia) was 130 % of control [9 of 10 alive]; the T/C (dose: 100.0 mg/kg/injection, schedule: Q01DX009 (ip), vehicle: gum acacia) is 130 % of control; the T/C (dose: 200.0 mg/kg/injection, schedule: Q01DX009 (ip), vehicle: gum acacia) was 137 % of control [8 of 10 alive].
